# Counter-ions that a name gives are not always drawn. In all, about 1,100 compounds were measured (“Renilla luciferase signal (cell health) relative to plate median”: median about 0.97, highest 2% from about 1.6 on). The list shows a part of the results, in another mix than the full data.
# System: HEK293T (UBE3A T485A transfected, BAR Wnt reporter)
# Assay: Renilla luciferase signal (cell health) relative to plate median (fold (linear ratio)); higher = higher Renilla signal
# Conditions: 24 h
# How it was run: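 Using Fugene 6, HEK293T cells in white 384-well plates (4500 cells/well; DMEM, 10% FBS, 37°C, 5% CO2) were transfected with a BAR firefly luciferase Wnt reporter, TK-Renilla and an expression plasmid. After four hours, robots dosed the chemicals at 0.01–100 uM, and a Dual-Glo luciferase readout followed 24 h later. Per-plate median-centred firefly/Renilla ratios gave Wnt activity, while per-plate median-centred raw Renilla signals gave cell health. Four biological replicates were averaged.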
Compound,Renilla luciferase signal (concentration: 0.1 uM),Renilla luciferase signal (concentration: 1 uM),Renilla luciferase signal (concentration: 10 uM),Renilla luciferase signal (concentration: 100 uM),Renilla luciferase signal (concentration: 0.01 uM)
CC/C(=C(\c1ccccc1)c1ccc(OCCN(C)C)cc1)c1ccccc1.O=C(O)CC(O)(CC(=O)O)C(=O)O [Tamoxifen citrate],0.921,1.04,1.01,0.913,–
CS(=O)(=O)O.Cc1nccn1-c1ccc(Sc2cccc(C3(C(N)=O)CCOCC3)c2)cc1,0.91,0.739,0.251,0.24,–
O=C(N[C@@H](Cc1ccccc1)[C@@H](O)C(=O)N1C[C@@H](O)[C@@H](O)C1)c1cc2cc(Cl)ccc2[nH]1 [Ingliforib],0.797,0.711,0.851,0.148,–
CC[C@]1(O)C[C@H]2C[N@](CCc3c([nH]c4ccccc34)[C@@](C(=O)OC)(c3cc4c(cc3OC)N(C=O)[C@H]3[C@@](O)(C(=O)OC)[C@H](OC(C)=O)[C@]5(CC)C=CCN6CC[C@]43[C@@H]65)C2)C1 [Vincristine],0.0414,0.0347,0.0574,0.00391,0.0549
S=C([S-])NCCNC(=S)[S-].[Mn+2] [Maneb],1.01,0.995,0.968,0.105,0.874
"Cc1ccc(C)c(C)c1 [1,2,4-Trimethylbenzene]",1.07,1.03,1.06,1.14,–
CCCCCCOC(=O)CC(CC(=O)OCCCCCC)(OC(=O)CCC)C(=O)OCCCCCC [Butyryl trihexyl citrate],0.879,0.854,1.08,1.59,–
CC(C)NCC(O)c1ccc(O)c(O)c1.Cl (configuration not stated) [Isoproterenol hydrochloride],0.796,0.791,0.784,0.483,–
COC(=O)CSc1cc(/N=c2\sc(=O)n3n2CCCC3)c(F)cc1Cl [Fluthiacet-methyl],0.995,1.1,1,1.21,1.03
CCc1cc(C2=C(C(=O)[O-])N(c3ccccc3C(F)(F)F)S(=O)(=O)c3ccccc32)cc2c1OCO2.[K+] [Fandosentan potassium salt],1.01,1.1,0.887,0.331,–
CCCCOC(=O)CCCCC(=O)OCCCC [Dibutyl hexanedioate],1.09,1.25,1.23,1.33,–
CCCCC(CC)C(=O)O (configuration not stated) [2-Ethylhexanoic acid],0.941,0.932,0.953,1.5,–
CCCCCOC(=O)COc1cc(N2C(=O)C3=C(CCCC3)C2=O)c(F)cc1Cl [Flumiclorac-pentyl],–,–,–,1.62,–
CCCN(C1CCN(C(=O)C2CCNCC2)CC1)[C@@H]1CCc2ccc(OC)cc2C1,1.08,1.1,1.01,0.0265,–
c1ccc2c(c1)-c1cccc3c1c-2cc1ccccc13 [Benzo(b)fluoranthene],0.831,0.83,0.89,0.898,–
NC(=O)N1c2ccccc2C=Cc2ccccc21 [Carbamazepine],1.08,1.07,1.04,0.628,–
O=C(OC[C@H]1O[C@@H](OC(=O)c2cc(O)c(O)c(OC(=O)c3cc(O)c(O)c(O)c3)c2)[C@H](OC(=O)c2cc(O)c(O)c(OC(=O)c3cc(O)c(O)c(O)c3)c2)[C@@H](OC(=O)c2cc(O)c(O)c(OC(=O)c3cc(O)c(O)c(O)c3)c2)[C@@H]1OC(=O)c1cc(O)c(O)c(OC(=O)c2cc(O)c(O)c(O)c2)c1)c1cc(O)c(O)c(OC(=O)c2cc(O)c(O)c(O)c2)c1 [Tannic acid],1.11,1.02,0.8,0.0271,–
CCOC(=O)c1ccc(O)cc1 [Ethylparaben],1.04,1.12,1,1,–
"CC(O)CC(C)(C)O (configuration not stated) [2-Methyl-2,4-pentanediol]",1.01,0.927,0.981,1.25,–

# An excerpt from above in order of heavy-atom count, high to low:
Compound,Renilla luciferase signal (concentration: 0.1 uM),Renilla luciferase signal (concentration: 1 uM),Renilla luciferase signal (concentration: 10 uM),Renilla luciferase signal (concentration: 100 uM),Renilla luciferase signal (concentration: 0.01 uM)
CCCCCOC(=O)COc1cc(N2C(=O)C3=C(CCCC3)C2=O)c(F)cc1Cl [Flumiclorac-pentyl],–,–,–,1.62,–
c1ccc2c(c1)-c1cccc3c1c-2cc1ccccc13 [Benzo(b)fluoranthene],0.831,0.83,0.89,0.898,–
CCOC(=O)c1ccc(O)cc1 [Ethylparaben],1.04,1.12,1,1,–
"Cc1ccc(C)c(C)c1 [1,2,4-Trimethylbenzene]",1.07,1.03,1.06,1.14,–

# (further entries)

Compound,Renilla luciferase signal (concentration: 0.1 uM),Renilla luciferase signal (concentration: 1 uM),Renilla luciferase signal (concentration: 10 uM),Renilla luciferase signal (concentration: 100 uM),Renilla luciferase signal (concentration: 0.01 uM)
CCCCCCCCCCCC[N+](C)(C)C.[Cl-] [Dodecyltrimethylammonium chloride],0.83,0.808,0.112,0.0199,–
"FC(F)(F)C(F)(F)C(F)(F)C(F)(F)C(F)(F)C(F)(F)CCI [1H,1H,2H,2H-Perfluorooctyl iodide]",0.905,0.909,0.945,0.892,–
C[C@]12C=CC(=O)C=C1CC[C@H]1[C@@H]3C[C@@H](O)[C@](O)(C(=O)CO)[C@@]3(C)C[C@H](O)[C@@]12F [Triamcinolone],0.961,0.933,0.933,1.33,–
CCCC(=O)OCCC(C)C [Isopentyl butyrate],0.922,0.981,1.08,1.09,–
CC(C)(C)c1cc(/C=C2\SC(=N)NC2=O)cc(C(C)(C)C)c1O.CS(=O)(=O)O [Darbufelone mesylate],0.798,0.869,0.484,0.0265,–
CC(CO)OC(C)CO.CC(O)COCC(C)O (configuration not stated) [Dipropylene glycol],1.05,1.21,1.3,1.23,–
CCCCCc1ccc(N)cc1 [4-Pentylaniline],1.09,1.01,1.05,0.823,–
CCOC(=O)CC(CC(=O)OCC)(OC(C)=O)C(=O)OCC [Acetyltriethyl citrate],0.793,0.812,0.872,1.04,–
OCC(CO)(CO)CO [Pentaerythritol],0.898,1.02,1.08,2.01,–
COc1cccc([C@H](O)C2CCN(CCc3ccc(F)cc3)CC2)c1OC [Volinanserin],1.05,0.919,0.909,0.112,–
CCCCC(CC)COC(=O)CCCCCCCC(=O)OCC(CC)CCCC (configuration not stated) [Bis(2-ethylhexyl) nonanedioate],1.12,1.13,1.08,1.31,–
CCCCCCC(=O)OCC [Ethyl heptanoate],1.07,0.911,0.835,0.706,–
CO[C@@H]1COCC[C@@H]1[NH2+][C@@H]1CC[C@@](C(=O)N2CCc3ncc(C(F)(F)F)cc3C2)(C(C)C)C1.O=C([O-])CCC(=O)O,0.901,1.1,0.9,1.08,–
C#C[C@]1(O)CC[C@H]2[C@@H]3CCC4=CC(=O)CC[C@@H]4[C@H]3CC[C@@]21CC [Norgestrel],1.24,1.1,1.06,0.926,–
CCOc1ccc2c(c1)C(C)=CC(C)(C)N2 [Ethoxyquin],1,1.01,0.86,0.0339,–
"CCCOC(=O)c1ccc(C(=O)OCCC)nc1 [Dipropyl pyridine-2,5-dicarboxylate]",0.979,0.98,0.888,1.2,1.25
COc1ccc(S(=O)(=O)N2C(=O)[C@@](c3ccccc3OC)(N3C[C@H](O)C[C@H]3C(=O)N(C)C)c3cc(Cl)ccc32)c(OC)c1 [Nelivaptan],0.501,0.516,0.404,0.14,–
CC(C)(C)c1cc(O)ccc1O [tert-Butylhydroquinone],0.651,0.859,0.989,0.227,–
CCOC(=O)C(C)Oc1ccc(Oc2cnc3cc(Cl)ccc3n2)cc1 (configuration not stated) [Quizalofop-ethyl],0.758,0.993,0.953,1.88,1.1

Compound,Renilla luciferase signal (concentration: 0.1 uM),Renilla luciferase signal (concentration: 1 uM),Renilla luciferase signal (concentration: 10 uM),Renilla luciferase signal (concentration: 100 uM),Renilla luciferase signal (concentration: 0.01 uM)
CCCN(CCC)c1c([N+](=O)[O-])cc(C(F)(F)F)c(N)c1[N+](=O)[O-] [Prodiamine],0.702,0.892,0.843,0.67,0.707
CCCCC(CC)CO (configuration not stated) [2-Ethyl-1-hexanol],0.758,0.775,0.504,1.25,–
CCCCCCOCCO [2-(Hexyloxy)ethanol],0.823,0.921,0.944,1.23,–
CCCCCCCC(=O)OC [Methyl octanoate],1.03,0.911,1.04,1.61,–
O=c1[nH]c2cc([N+](=O)[O-])c([N+](=O)[O-])cc2[nH]c1=O,–,–,–,1.96,–
COc1c(N2CC3CCCNC3C2)c(F)cc2c(=O)c(C(=O)O)cn(C3CC3)c12 (configuration not stated) [Moxifloxacin],0.834,0.851,0.837,0.85,0.927
NC(=O)N(O)[C@@H]1COc2cc(OCc3ccccc3)ccc21,1.18,1.11,1.11,0.932,–
Nc1nc2nc[nH]c2c(=S)[nH]1 [6-Thioguanine],0.928,0.891,0.0314,0.0376,–
c1ccc2ccccc2c1 [Naphthalene],1.18,1.14,1.33,1.64,–
"CC1(C)C(=O)N(Br)C(=O)N1Br [1,3-Dibromo-5,5-dimethylhydantoin]",1.46,1.28,1.16,1.02,–
C=CCCCCCCCCCCCC [1-Tetradecene],1.14,1.17,0.992,1.23,–
CCc1nn(C2CCCCC2)c2cc([C@]3(C#N)CC[C@@H](C(=O)O)CC3)ccc12,0.612,0.739,0.576,0.262,–
Cc1ccc(N)cc1O [5-Amino-2-methylphenol],–,–,–,1.78,–
"O=C1NC(=O)C(c2ccccc2)(c2ccccc2)N1 [5,5-Diphenylhydantoin]",0.874,0.824,0.927,0.553,–
CCCCCCC(CCCCCCCCCCC(=O)OCC(COC(C)=O)OC(C)=O)OC(C)=O (configuration not stated) [Grinstad Soft-N-Safe],0.819,0.849,0.893,0.93,–
CC[C@H](C)C(=O)O[C@H]1C[C@@H](C)C=C2C=C[C@H](C)[C@H](CC[C@@H]3C[C@@H](O)CC(=O)O3)[C@H]21 [Lovastatin],0.972,0.929,1.08,0.837,–
"Cc1c2ccccc2c(C)c2c1ccc1ccccc12 [7,12-Dimethylbenz(a)anthracene]",0.7,0.699,0.269,0.0203,–
CCCCCCCCCCCCCCO [1-Tetradecanol],0.93,0.831,0.94,0.92,–
